Measurements from patent US20240165282A1 (STARGET PHARMA LTD., priority 2021, published 2024).

Test: general procedure: Fmoc solid-phase peptide synthesis; Rink amide MBHA; DIC/HOBt; PyBroP/DIEA for repeated Arg coupling
Conditions: whole synthesis, scale 0.231 mmol

**Q.** Which crude mass does the source give for “H-D-Phe^1-Arg^2-Cys^3-Phe^4-D-Trp^5-Lys^6-Thr^7-Phe^8-NTEG^9-NH^2 (cyclo 3-9)” here?
**A.** 182 mg
